The results in this text go back to article PMC3924036.

For the test, the target named is T1, DivIVA-GFP-His-tag fusion (strain 3308) (B. subtilis) (UniProt P71021).
T1 sequence: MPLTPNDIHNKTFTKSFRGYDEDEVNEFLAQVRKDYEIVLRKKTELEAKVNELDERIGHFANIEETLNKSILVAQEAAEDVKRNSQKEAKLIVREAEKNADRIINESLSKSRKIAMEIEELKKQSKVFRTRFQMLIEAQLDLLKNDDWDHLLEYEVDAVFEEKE
The test is described as follows: cross-linking + affinity purification with mass spectrometry; in vivo cross-linking of an exponentially growing culture of strain 3308 with 1% formaldehyde for 20 min, quenched with 75 mM glycine; cells broken and treated with Urea/SDS; DivIVA-GFP-His purified on a Ni-NTA column; cross-links reversed by heating; bands of an SDS-PAA gel identified by mass spectrometry.

These are yes or no findings as the source states them, for the method shown. In cells and extracts the contact can be indirect. A yes stands for co-enrichment or nearness to the bait. Other partners may have been found. A no says only that the protein was not detected with the bait. Tags and fused reporters may be left off the sequences shown.

As for FusA (from UniProt P80868 1-692), the binding entry is “no binding”. Then DnaK (from UniProt P17820 1-611), with “no binding”; and “PdhA (from UniProt P21881 1-371) (enzyme)”, with “no binding”. In the case of “secretion ATPase SecA (from UniProt P28366 1-841) (enzyme)”, the binding result is reported as “binds”.

B1: YdjL (enzyme, UniProt O34788 1-346)
chain: MKAARWHNQKDIRIEHIEEPKTEPGKVKIKVKWCGICGSDLHEYLGGPIFIPVDKPHPLTNETAPVTMGHEFSGEVVEVGEGVENYKVGDRVVVEPIFATHGHQGAYNLDEQMGFLGLAGGGGGFSEYVSVDEELLFKLPDELSYEQGALVEPSAVALYAVRSSKLKAGDKAAVFGCGPIGLLVIEALKAAGATDIYAVELSPERQQKAEELGAIIVDPSKTDDVVAEIAERTGGGVDVAFEVTGVPVVLRQAIQSTTIAGETVIVSIWEKGAEIHPNDIVIKERTVKGIIGYRDIFPAVLSLMKEGYFSADKLVTKKIVLDDLIEEGFGALIKEKSQVKILVRPN
Take B1: the binding entry is “no binding”.

B2: Tsf (protein, UniProt P80700 1-293)
chain: MAITAQQVKELREKTGAGMMDCKKALTETDGDMDKAIDLLREKGIAKAAKKADRIAAEGSTLIKTDGNKGVILEVNSETDFVAKNEGFKELLNTLADHLLANTPADVEEAMGQKMENGSTVEEYITSAVAKIGEKITLRRFTVLTKDDSSAFGAYLHMGGRIGVLTVLNGTTDEETAKDIAMHVAAVNPRYISRDQVSEEETNHERQILTQQALQEGKPENIVAKMVEGRLNKFFEEICLLDQAFVKNPDEKVKQVIAAKNATVQTFVRYEVGEGIEKRQENFAEEVMNQVKK
As for B2, the binding result is reported as “no binding”.

B3: unknown protein YxkC (protein, UniProt P94356 31-180)
chain: TSKTSSSSKAETEKTYNIGDTVKTEKTEVTVTKVEDRDTVGTQYVEKKASEGGTIVAVQYTIKNVSKKPISSFSIPTVKLVDADGTSYDSDIDASVNYATETKVDNSKILSDLNPNIKVTGVKAFEVDKEAYAKGTWKLKFSNDVIVKIK
Consider B3, for which the binding entry is recorded as “binds”.

B4: prephenate dehydratase PheA (enzyme, UniProt P21203 1-285)
chain: MKVGYLGPAATFTHLAVSSCFQNGAEHVAYRTIPECIDAAVAGEVDFAFVPLENALEGSVNLTIDYLIHEQPLPIVGEMTLPIHQHLLVHPSRENAWKELDKIYSHSHAIAQCHKFLHRHFPSVPYEYANSTGAAAKFVSDHPELNIGVIANDMAASTYELKIVKRDIQDYRDNHTRFVILSPDENISFEVNSKLSSRPKTTLMVMLPQDDQSGALHRVLSAFSWRNLNLSKIESRPTKTGLGHYFFIIDIEKAFDDVLIPGAMQELEALGCKVRLLGAYQSYQL
Turning to B4, the binding result was “binds”.

B5: Tkt (enzyme, UniProt P45694 1-667)
chain: MDTIEKKSVATIRTLSIDAIEKANSGHPGMPMGAAPMAYTLWTKFMNVSPANPGWFNRDRFVLSAGHGSALLYSMLHLSGFDLSIEDLKGFRQWGSKTPGHPEFGHTAGVDATTGPLGQGIAMAVGMAIAERHLAETYNRDSFNVVDHYTYSICGDGDLMEGISSEAASLAGHLQLGRLIVLYDSNDISLDGDLDRSFSENVKQRFEAMNWEVLYVEDGNNIEELTAAIEKARQNEKKPTLIEVKTTIGFGSPNRAGTSGVHGAPLGKEESKLTKEAYAWTYEEDFYVPSEVYEHFAVAVKESGEKKEQEWNAQFAKYKEVYPELAEQLELAIKGELPKDWDQEVPVYEKGSSLASRASSGEVLNGLAKKIPFFVGGSADLAGSNKTTIKNAGDFTAVDYSGKNFWFGVREFAMGAALNGMALHGGLRVFGGTFFVFSDYLRPAIRLAALMGLPVTYVFTHDSIAVGEDGPTHEPVEQLASLRAMPNLSLIRPADGNETAAAWKLAVQSTDHPTALVLTRQNLPTIDQTSEEALAGVEKGAYVVSKSKNETPDALLIASGSEVGLAIEAQAELAKENIDVSVVSMPSMDRFEKQSDEYKNEVLPADVKKRLAIEMGSSFGWGKYTGLEGDVLGIDRFGASAPGETIINEYGFSVPNVVNRVKALINK
Turning to B5, the binding result is given as “no binding”.
